{"source": "PubChem BioAssay (EPA / NIEHS)", "key": {"[1]": {"assay": "Tanguay_ZF_120hpf_JAW_legacy: (Legacy) Oregon State University Tanguay Lab 120 Hour Post-fertilization zebrafish Assay for Jaw Malformation (AID 2283638);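 for AC50: active means more embryos with jaw malformation than DMSO controls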", "outline": "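Steps: dechorionate 4 hpf embryos (pronase); plate 1/well at 6 hpf; add test chemical, 0.64% DMSO final; seal, cover, hold at 28C statically to 120 hpf; score jaw defect presence/absence microscopically. Dead embryos not scored.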"}, "[2]": {"assay": "Tanguay_ZF_120hpf_PE_legacy: (Legacy) Oregon State University Tanguay Lab 120 Hour Post-fertilization zebrafish Assay for Pericardial Edema (AID 2283640);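 note: potency for increased incidence of pericardial edema versus DMSO baseline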", "outline": "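Embryos from wild-type 5D adults were staged, then dosed in 0.64% DMSO. They were kept sealed in the dark at 28C until 120 hpf. Pericardial edema was then recorded as present or absent.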"}, "[3]": {"assay": "Tanguay_ZF_120hpf_CIRC_legacy: (Legacy) Oregon State University Tanguay Lab 120 Hour Post-fertilization zebrafish Assay for Circulatory Malformation (AID 2283651)", "outline": "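Embryos are dechorionated at 4 hpf, plated one per well at 6 hpf, then held under static exposure at 28C until 120 hpf. Malformations are recorded as binary calls; mortality excludes other endpoints.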"}, "[4]": {"assay": "Tanguay_ZF_120hpf_TRUN_legacy: (Legacy) Oregon State University Tanguay Lab 120 Hour Post-fertilization zebrafish Assay for Truncated Body (AID 2283655)", "outline": "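Truncated body is recorded as a binary endpoint at 120 hpf by brightfield imaging of wild-type 5D larvae. Exposure runs statically from 6 hpf at 28C with 0.64% DMSO; embryos dying earlier are not scored.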"}, "[5]": {"assay": "Tanguay_ZF_120hpf_PFIN_legacy: (Legacy) Oregon State University Tanguay Lab 120 Hour Post-fertilization zebrafish Assay for Pectoral Fin Malformation (AID 2283648)", "outline": "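Binary pectoral fin malformation call at 120 hpf by brightfield microscopy; 5D wild-type zebrafish, chorion removed at 4 hpf, one embryo per well from 6 hpf, static exposure at 28C; DMSO (0.64% final) as baseline.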"}, "[6]": {"assay": "Tanguay_ZF_120hpf_PIG_legacy: (Legacy) Oregon State University Tanguay Lab 120 Hour Post-fertilization zebrafish Assay for Pigmentation Malformation (AID 2283650)", "outline": "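Brightfield scoring of pigmentation malformation at 120 hpf, recorded as binary present/absent per larva. Exposure: dechorionated 5D wild-type embryos, one per well, static from 6 hpf at 28C, final DMSO 0.64% (vol/vol). Dead embryos not scored.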"}, "[7]": {"assay": "Tanguay_ZF_120hpf_NC_legacy: (Legacy) Oregon State University Tanguay Lab 120 Hour Post-fertilization zebrafish Assay for Notochord and Tail Malformation (AID 2283656)", "outline": "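Binary scoring of notochord distortion by brightfield microscopy; embryos dying were not scored. Wild-type Tropical 5D embryos, chorion removed, exposed singly and statically from 6 to 120 hpf, 28C, sealed, 0.64% DMSO.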"}, "[8]": {"assay": "Tanguay_ZF_120hpf_OTIC_legacy: (Legacy) Oregon State University Tanguay Lab 120 Hour Post-fertilization zebrafish Assay for Otic Vesicle Malformation (AID 2283639)", "outline": "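Statically exposed wild-type 5D zebrafish embryos, kept sealed and dark at 28C through 120 hours post fertilization, were examined by brightfield microscopy for otic vesicle defects. Responses were recorded as present or absent and analysed relative to DMSO.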"}, "[9]": {"assay": "Tanguay_ZF_120hpf_CFIN_legacy: (Legacy) Oregon State University Tanguay Lab 120 Hour Post-fertilization zebrafish Assay for Caudal Fin Malformation (AID 2283649)", "outline": "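Binary presence or absence of caudal fin malformation at 120 hpf, read by brightfield microscopy, with DMSO as baseline. Larvae came from 5D wild-type embryos exposed statically from 6 hpf at 28C after pronase dechorionation.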"}, "[10]": {"assay": "Tanguay_ZF_120hpf_BRAI_legacy: (Legacy) Oregon State University Tanguay Lab 120 Hour Post-fertilization zebrafish Assay for Brain Malformation (AID 2283641)", "outline": "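Wild-type 5D larvae, static waterborne exposure to 120 hpf, 28C, 0.64% v/v DMSO. Brightfield scoring of brain defects, binary; dead embryos excluded. Positive ctrl 5uM trimethyltin chloride.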"}, "[11]": {"assay": "Tanguay_ZF_120hpf_SWIM_legacy: (Legacy) Oregon State University Tanguay Lab 120 Hour Post-fertilization zebrafish Assay for Swim Bladder Malformation (AID 2283654)", "outline": "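Tropical 5D embryos dechorionated at 4 hpf; 1 embryo/well from 6 hpf; static, sealed, dark exposure at 28C until 120 hpf; final DMSO 0.64%; 5uM trimethyltin chloride positive control; swim bladder defect recorded yes/no; dead embryos not scored.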"}}, "note": "Inconclusive means that the source gave no clear call. Such entries were picked first, then a sample of the others. For some of these results: Potencies of inconclusive entries are doubtful fits and often do not repeat. Activity calls are given as the source filed them. Rule for the calls: active = hit-call score of the fitted dose curve at least 0.9, where 1 is the maximum; inconclusive = response in the unintended direction; inactive = score below 0.9."}
{"smiles": "O=[N+]([O-])C(Br)(CO)CO", "values": [{"measurement": "AC50", "setting": "[1]", "result": "inconclusive: 117 µM"}, {"measurement": "AC50", "setting": "[2]", "result": "inconclusive: 131 µM"}, {"measurement": "AC50", "setting": "[3]", "result": "inconclusive: 0.64 nM"}, {"measurement": "AC50", "setting": "[4]", "result": "inconclusive: 151 µM"}]}
{"smiles": "CCC(C)(C)c1ccc(O)c(C(C)(C)CC)c1", "values": [{"measurement": "outcome", "setting": "[1]", "result": "inactive"}, {"measurement": "AC50", "setting": "[5]", "result": "inconclusive: 1.42 µM"}, {"measurement": "outcome", "setting": "[6]", "result": "inactive"}, {"measurement": "AC50", "setting": "[7]", "result": "inconclusive: 1.41 µM"}]}
{"smiles": "CCCCCCCc1ccc(O)cc1", "values": [{"measurement": "AC50", "setting": "[8]", "result": "inconclusive: 9.78 µM"}, {"measurement": "AC50", "setting": "[9]", "result": "inconclusive: 2.05 µM"}, {"measurement": "outcome", "setting": "[3]", "result": "inactive"}]}
{"smiles": "Clc1ccc(Cl)cc1", "values": [{"measurement": "AC50", "setting": "[10]", "result": "inconclusive: 25.4 µM"}, {"measurement": "AC50", "setting": "[5]", "result": "inconclusive: 202 µM"}, {"measurement": "outcome", "setting": "[9]", "result": "inactive"}, {"measurement": "outcome", "setting": "[6]", "result": "inactive"}, {"measurement": "AC50", "setting": "[11]", "result": "inconclusive: 199 µM"}]}
{"smiles": "CC(C)(C)c1ccc(O)cc1", "values": [{"measurement": "AC50", "setting": "[8]", "result": "inconclusive: 4.57 µM"}, {"measurement": "outcome", "setting": "[5]", "result": "inactive"}, {"measurement": "AC50", "setting": "[6]", "result": "active: 25.2 µM"}]}
